The supplement of paper PMC10849652
The other results are listed elsewhere or left out.

Protein sequences, listed by entry. Tags and fused reporters are not part of them. Lines headed by an entry give the natural chain unless they say otherwise; changes in a name come on top.
UniProt Q96IV0: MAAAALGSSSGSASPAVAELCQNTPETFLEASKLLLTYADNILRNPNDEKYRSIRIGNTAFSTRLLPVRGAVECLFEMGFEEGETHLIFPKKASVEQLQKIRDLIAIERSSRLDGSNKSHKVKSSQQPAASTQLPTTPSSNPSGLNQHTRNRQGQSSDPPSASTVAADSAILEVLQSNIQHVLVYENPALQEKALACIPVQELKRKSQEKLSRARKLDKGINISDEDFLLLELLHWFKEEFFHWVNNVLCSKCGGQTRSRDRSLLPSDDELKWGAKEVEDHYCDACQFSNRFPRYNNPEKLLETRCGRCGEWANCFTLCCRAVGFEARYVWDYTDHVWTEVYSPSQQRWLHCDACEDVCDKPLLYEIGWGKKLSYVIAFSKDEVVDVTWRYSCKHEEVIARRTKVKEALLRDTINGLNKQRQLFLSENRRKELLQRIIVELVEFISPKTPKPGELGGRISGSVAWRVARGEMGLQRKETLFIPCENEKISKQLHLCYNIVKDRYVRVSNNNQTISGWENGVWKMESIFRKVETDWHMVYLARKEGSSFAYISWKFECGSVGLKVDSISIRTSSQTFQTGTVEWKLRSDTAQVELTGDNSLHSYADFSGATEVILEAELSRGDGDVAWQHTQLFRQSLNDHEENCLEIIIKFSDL
UniProt P46459: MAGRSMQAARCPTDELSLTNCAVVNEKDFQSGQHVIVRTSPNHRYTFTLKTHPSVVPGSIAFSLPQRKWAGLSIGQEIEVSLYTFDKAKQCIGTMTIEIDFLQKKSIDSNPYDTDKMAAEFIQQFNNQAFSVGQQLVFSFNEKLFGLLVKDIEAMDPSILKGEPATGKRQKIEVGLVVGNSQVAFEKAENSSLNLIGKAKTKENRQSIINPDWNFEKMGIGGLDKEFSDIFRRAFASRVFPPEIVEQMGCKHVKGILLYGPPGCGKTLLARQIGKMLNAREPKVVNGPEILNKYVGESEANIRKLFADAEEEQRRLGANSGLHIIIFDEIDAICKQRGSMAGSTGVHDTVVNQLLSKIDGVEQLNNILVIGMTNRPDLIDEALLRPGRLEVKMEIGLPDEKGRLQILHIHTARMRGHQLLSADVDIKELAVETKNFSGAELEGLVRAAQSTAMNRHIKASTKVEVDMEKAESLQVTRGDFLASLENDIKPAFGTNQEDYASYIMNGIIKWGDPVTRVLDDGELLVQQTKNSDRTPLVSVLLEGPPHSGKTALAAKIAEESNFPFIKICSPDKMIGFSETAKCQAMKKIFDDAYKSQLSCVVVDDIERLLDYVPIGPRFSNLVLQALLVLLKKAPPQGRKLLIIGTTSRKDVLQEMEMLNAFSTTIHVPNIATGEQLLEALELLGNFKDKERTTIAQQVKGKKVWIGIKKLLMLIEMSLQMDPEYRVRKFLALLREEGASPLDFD
UniProt Q9BYT8, whole entry, looked up: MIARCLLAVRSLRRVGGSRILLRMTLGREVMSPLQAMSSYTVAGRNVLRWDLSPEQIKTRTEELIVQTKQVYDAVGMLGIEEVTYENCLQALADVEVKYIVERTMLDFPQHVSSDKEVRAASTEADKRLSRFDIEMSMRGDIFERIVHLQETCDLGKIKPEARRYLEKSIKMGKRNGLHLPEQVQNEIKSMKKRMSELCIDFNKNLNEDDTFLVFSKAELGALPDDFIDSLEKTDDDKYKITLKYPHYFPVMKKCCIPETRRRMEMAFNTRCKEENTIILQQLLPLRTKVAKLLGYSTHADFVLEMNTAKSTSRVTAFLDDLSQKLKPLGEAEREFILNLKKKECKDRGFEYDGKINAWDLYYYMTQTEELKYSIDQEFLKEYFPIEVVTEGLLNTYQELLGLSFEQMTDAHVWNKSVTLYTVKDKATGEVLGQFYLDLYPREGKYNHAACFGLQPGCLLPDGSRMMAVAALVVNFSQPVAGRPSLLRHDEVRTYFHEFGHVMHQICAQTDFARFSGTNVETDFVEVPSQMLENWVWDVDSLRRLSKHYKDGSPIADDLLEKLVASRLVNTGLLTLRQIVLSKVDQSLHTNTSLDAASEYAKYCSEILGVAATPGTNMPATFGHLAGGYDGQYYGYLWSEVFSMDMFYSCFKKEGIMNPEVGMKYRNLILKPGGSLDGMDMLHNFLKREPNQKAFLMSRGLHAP
UniProt Q9BS92: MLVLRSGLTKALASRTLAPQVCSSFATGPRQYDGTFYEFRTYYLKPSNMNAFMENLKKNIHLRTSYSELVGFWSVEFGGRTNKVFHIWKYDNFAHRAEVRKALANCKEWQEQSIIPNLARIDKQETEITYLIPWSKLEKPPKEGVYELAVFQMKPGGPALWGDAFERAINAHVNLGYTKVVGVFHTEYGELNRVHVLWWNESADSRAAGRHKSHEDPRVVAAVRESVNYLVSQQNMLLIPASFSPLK
UniProt Q9NPE2: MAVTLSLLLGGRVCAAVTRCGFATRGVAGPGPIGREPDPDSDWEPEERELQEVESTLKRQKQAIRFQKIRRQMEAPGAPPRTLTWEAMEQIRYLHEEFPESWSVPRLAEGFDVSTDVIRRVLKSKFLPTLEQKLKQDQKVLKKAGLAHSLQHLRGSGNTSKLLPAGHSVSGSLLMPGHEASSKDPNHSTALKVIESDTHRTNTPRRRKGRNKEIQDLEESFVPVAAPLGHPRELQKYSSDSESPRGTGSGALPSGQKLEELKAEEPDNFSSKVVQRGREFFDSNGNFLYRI
UniProt Q12968: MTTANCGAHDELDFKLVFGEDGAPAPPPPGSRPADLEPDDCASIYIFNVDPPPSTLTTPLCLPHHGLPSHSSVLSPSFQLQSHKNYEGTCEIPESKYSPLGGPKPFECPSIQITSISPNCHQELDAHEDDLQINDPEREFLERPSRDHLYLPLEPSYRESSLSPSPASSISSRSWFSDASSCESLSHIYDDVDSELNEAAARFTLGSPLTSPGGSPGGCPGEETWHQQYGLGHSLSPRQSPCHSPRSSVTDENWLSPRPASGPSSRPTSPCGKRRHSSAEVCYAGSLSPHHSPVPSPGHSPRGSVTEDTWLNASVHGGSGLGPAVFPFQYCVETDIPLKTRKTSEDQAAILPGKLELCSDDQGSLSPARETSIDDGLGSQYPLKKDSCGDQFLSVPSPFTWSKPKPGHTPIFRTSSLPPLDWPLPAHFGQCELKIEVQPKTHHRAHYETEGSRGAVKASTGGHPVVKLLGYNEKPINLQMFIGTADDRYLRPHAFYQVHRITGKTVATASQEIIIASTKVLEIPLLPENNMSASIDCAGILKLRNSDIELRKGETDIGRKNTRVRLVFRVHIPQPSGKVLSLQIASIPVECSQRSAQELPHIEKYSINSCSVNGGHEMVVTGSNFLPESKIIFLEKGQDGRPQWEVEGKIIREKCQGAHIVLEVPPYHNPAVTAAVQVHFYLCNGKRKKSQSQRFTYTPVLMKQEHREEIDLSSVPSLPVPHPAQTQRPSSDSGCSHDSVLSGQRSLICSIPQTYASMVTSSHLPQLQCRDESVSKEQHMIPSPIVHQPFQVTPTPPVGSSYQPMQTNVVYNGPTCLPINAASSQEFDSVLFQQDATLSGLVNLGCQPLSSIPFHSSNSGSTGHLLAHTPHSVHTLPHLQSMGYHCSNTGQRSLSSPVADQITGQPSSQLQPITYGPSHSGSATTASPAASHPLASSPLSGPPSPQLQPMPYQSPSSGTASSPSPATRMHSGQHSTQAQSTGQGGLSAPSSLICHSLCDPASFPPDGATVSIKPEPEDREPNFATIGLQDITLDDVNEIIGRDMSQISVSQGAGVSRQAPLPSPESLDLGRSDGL
UniProt Q92686, whole entry, looked up: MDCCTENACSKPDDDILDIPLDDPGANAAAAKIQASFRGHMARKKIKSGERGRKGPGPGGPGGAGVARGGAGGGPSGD
UniProt Q8IXH7, whole entry, looked up: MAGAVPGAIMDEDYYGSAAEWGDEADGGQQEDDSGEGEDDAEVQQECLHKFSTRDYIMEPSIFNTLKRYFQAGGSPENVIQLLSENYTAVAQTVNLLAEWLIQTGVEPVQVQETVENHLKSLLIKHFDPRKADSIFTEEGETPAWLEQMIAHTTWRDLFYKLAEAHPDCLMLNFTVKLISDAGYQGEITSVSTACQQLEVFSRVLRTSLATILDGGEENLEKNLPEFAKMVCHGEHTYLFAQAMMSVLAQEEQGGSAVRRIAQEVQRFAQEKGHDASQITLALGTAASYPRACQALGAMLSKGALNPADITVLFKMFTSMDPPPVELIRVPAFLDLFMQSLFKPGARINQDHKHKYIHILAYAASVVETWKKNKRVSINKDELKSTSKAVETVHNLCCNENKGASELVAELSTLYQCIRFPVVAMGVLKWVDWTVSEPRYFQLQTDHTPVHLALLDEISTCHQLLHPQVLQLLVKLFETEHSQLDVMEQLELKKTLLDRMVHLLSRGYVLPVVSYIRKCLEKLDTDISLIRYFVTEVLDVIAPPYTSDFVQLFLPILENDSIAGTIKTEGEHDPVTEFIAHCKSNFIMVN
UniProt Q8WTT2: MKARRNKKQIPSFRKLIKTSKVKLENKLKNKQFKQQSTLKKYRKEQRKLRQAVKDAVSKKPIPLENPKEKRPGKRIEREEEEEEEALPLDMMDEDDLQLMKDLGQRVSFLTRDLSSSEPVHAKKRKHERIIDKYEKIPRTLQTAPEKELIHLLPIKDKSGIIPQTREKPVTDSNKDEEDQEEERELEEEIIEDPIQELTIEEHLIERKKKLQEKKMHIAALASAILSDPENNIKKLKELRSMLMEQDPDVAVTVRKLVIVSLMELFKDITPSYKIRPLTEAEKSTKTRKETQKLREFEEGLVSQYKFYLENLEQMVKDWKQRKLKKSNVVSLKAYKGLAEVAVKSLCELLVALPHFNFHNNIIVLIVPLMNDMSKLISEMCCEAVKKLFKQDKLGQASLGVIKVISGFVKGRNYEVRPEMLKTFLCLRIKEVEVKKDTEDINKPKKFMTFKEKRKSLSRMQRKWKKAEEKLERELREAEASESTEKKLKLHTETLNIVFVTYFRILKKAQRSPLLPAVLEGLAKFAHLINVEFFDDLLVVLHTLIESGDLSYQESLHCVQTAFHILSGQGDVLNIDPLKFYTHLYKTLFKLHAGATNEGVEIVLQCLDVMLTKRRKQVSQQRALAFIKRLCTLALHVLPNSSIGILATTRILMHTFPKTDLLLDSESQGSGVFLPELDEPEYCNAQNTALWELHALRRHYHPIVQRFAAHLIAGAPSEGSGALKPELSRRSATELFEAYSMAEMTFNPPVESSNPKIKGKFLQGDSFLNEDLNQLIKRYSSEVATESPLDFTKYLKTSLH
UniProt P46087: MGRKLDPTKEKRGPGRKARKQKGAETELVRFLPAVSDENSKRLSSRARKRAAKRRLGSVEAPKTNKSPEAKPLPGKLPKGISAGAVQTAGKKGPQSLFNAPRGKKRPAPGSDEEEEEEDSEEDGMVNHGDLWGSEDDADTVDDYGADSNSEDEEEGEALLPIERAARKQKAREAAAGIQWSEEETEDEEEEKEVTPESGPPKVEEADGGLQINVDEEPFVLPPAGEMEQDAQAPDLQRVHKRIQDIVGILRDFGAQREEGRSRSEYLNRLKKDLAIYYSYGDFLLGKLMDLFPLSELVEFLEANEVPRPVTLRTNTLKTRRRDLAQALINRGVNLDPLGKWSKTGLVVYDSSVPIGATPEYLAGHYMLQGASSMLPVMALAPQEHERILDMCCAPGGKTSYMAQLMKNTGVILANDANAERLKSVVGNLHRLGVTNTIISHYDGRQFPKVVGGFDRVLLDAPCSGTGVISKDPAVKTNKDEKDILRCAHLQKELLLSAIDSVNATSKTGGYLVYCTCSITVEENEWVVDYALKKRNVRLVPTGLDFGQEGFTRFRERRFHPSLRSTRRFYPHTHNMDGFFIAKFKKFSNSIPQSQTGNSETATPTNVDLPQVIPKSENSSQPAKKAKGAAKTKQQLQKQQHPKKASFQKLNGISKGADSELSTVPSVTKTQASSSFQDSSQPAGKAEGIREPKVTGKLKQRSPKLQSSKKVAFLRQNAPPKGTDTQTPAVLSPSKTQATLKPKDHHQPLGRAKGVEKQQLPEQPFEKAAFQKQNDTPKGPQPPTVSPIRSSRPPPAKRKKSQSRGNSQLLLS
UniProt Q9UMY1: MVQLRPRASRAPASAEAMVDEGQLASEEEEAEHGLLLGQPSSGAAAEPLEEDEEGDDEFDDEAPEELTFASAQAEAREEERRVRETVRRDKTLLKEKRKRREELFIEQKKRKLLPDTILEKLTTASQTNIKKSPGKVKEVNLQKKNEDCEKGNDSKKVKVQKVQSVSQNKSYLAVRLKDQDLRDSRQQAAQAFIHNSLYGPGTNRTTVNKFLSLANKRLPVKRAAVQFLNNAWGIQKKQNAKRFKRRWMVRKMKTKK
UniProt Q8IXM6: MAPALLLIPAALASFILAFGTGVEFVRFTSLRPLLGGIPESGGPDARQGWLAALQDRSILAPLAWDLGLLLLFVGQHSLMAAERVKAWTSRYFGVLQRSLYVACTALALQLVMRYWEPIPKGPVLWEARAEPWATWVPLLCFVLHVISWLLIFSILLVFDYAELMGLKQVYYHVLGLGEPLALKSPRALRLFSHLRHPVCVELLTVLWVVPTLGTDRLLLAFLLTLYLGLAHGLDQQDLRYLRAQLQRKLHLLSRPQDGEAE

Compound: Cc1cn(-c2cc(NC(=O)c3ccc(C)c(Nc4nccc(-c5cccnc5)n4)c3)cc(C(F)(F)F)c2)cn1 [nilotinib]
Test: log2 fold change, soluble protein after heating vs DMSO (PISA); higher = thermal stabilisation; K562 cells, 10 uM, 30 min; active = over 0.2 and 3.5 SD of the protein, either way, in both replicates (recomputed)
How it was run: (§1)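 Thermal stability values are relative to control samples and come from duplicates. They are expressed as log2 fold changes. For measurement, K562 cells (2×10^6 cells/mL) received 10 μM compound for 30 min, and aliquots were heated for 3 min over 48°C-58°C, pooled, and extracted at 4°C in PBS with 0.5% NP-40. Soluble protein, the supernatant after 21,000xg for 90 min, was quantified by TMTpro 16plex LC-MS/MS with equalised channel sums.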

log2 fold change, inactive:
NFAT5 isoform 5 (UniProt O94916) -0.174
NGLY1 (UniProt Q96IV0) -0.068
NSF (UniProt P46459) -0.01
NLN (UniProt Q9BYT8) 0.001
NHP2 (UniProt Q9NX24) 0.016
NIPSNAP3B (UniProt Q9BS92) -0.029
NELFB isoform 2 (UniProt Q8WX92) -0.135
NFXL1 (UniProt Q6ZNB6) -0.061
NSMAF (UniProt Q92636) -0.031
NNT (UniProt Q13423) -0.005
NPL (UniProt Q9BXD5) -0.056
NOP56 (UniProt O00567) 0.098
NGRN (UniProt Q9NPE2) -0.044
NNMT (UniProt P40261) 0.015
NFATC3 (UniProt Q12968) -0.121
NFKB1 isoform 2 (UniProt P19838) -0.058
NRGN (UniProt Q92686) 0.004
NELFCD (UniProt Q8IXH7) -0.233
NPLOC4 isoform 2 (UniProt Q8TAT6) -0.014
NME2P1 (UniProt O60361) -0.236
NSD1 (UniProt Q96L73) 0.037
NRAS (UniProt P01111) 0.009
NOC3L (UniProt Q8WTT2) -0.044
NEK7 (UniProt Q8TDX7) -0.081
NEMF (UniProt O60524) -0.1
NOC2L (UniProt Q9Y3T9) 0.017
NMI (UniProt Q13287) -0.009
NOA1 (UniProt Q8NC60) -0.108
NOP2 isoform 4 (UniProt P46087) 0.111
NOL7 (UniProt Q9UMY1) -0.016
NOL12 (UniProt Q9UGY1) -0.026
NRM (UniProt Q8IXM6) 0.013
NOB1 (UniProt Q9ULX3) -0.044
NR2C2 isoform 2 (UniProt P49116) -0.033
NELFA (UniProt Q9H3P2) 0.032

Compound: Cc1nc(Nc2n[nH]c3c2CN(C(=O)N[C@H](CN(C)C)c2ccccc2)C3(C)C)c2sccc2n1
Test: as above
How it was run: as §1

log2 fold change, inactive:
NFAT5 isoform 5 (UniProt O94916) -0.007
NGLY1 (UniProt Q96IV0) -0.038
NSF (UniProt P46459) 0.021
NLN (UniProt Q9BYT8) 0.014
NHP2 (UniProt Q9NX24) -0.006
NIPSNAP3B (UniProt Q9BS92) 0.01
NELFB isoform 2 (UniProt Q8WX92) -0.123
NFXL1 (UniProt Q6ZNB6) -0.007
NSMAF (UniProt Q92636) -0.065
NNT (UniProt Q13423) -0.006
NPL (UniProt Q9BXD5) -0.022
NOP56 (UniProt O00567) -0.018
NGRN (UniProt Q9NPE2) -0.024
NNMT (UniProt P40261) 0.005
NFATC3 (UniProt Q12968) -0.316
NFKB1 isoform 2 (UniProt P19838) -0.399
NRGN (UniProt Q92686) -0.199
NELFCD (UniProt Q8IXH7) -0.003
NPLOC4 isoform 2 (UniProt Q8TAT6) -0.015
NME2P1 (UniProt O60361) -0.014
NSD1 (UniProt Q96L73) 0.068
NRAS (UniProt P01111) 0.002
NOC3L (UniProt Q8WTT2) 0.014
NEK7 (UniProt Q8TDX7) -0.03
NEMF (UniProt O60524) 0.128
NOC2L (UniProt Q9Y3T9) -0.045
NMI (UniProt Q13287) -0.014
NOA1 (UniProt Q8NC60) -0.024
NOP2 isoform 4 (UniProt P46087) 0.066
NOL7 (UniProt Q9UMY1) 0.146
NOL12 (UniProt Q9UGY1) 0.161
NRM (UniProt Q8IXM6) -0.043
NOB1 (UniProt Q9ULX3) -0.005
NR2C2 isoform 2 (UniProt P49116) -0.091
NELFA (UniProt Q9H3P2) -0.311
